Values of other authors in patent publication US9248104B2 (priority 2006, dated 2016).

Conditions: from Physician's Desk Reference

COc1cc2c(cc1OC)C(=O)C(CC1CCN(Cc3ccccc3)CC1)C2 (stereo not shown) [donepezil]
elimination half life: approximately 70 hours
